The text below walks through data of publication PMC11551737, “Structural and functional insights into the interaction between the bacteriophage T4 DNA processing proteins gp32 and Dda” (Nucleic Acids Research, 2024).

The exact form of at least one protein or probe is not confirmed. A negative result means that nothing was seen under these conditions. The comparison behind a weaker result is the experiment's own reference, which may not be listed here.

The test system of the series is gp32 His-tagged + Dda-K38A. The experiment in a line: gel filtration. The note with it: gel filtration: 20 mM Tris-HCl pH 7.0, 200 mM NaCl (50 mM for crystallization), 0.5 mM EDTA, 5 mM 2-mercaptoethanol, recombinant protein, protein details: N-terminal 6xHis,6xHis (stated for SPR), single-stranded DNA. In general terms: Size exclusion chromatography separates by hydrodynamic size, large species first.

Take TTTTTTTTTT [dT10]: the binding result (separate gp32 and Dda peaks, ternary complex not formed (binding of each protein alone not assessed)) is “no binding”.
On to TTTTTTTTTTTT [dT12], for which, where the note is “complex begins to appear”, the binding result is recorded as “binds more weakly”.
